Source: paper PMC6555797

Molecular target: T1, MBP-S1A4 (Oryza glaberrima)
T1 sequence: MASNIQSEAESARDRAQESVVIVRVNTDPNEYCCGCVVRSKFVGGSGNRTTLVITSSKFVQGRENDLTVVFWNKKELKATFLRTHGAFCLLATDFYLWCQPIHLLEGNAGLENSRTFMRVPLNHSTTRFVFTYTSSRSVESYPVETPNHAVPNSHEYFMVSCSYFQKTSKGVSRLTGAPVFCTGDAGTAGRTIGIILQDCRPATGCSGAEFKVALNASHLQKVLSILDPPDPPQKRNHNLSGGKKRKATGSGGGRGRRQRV
Assay: pull-down; MBP-S1A4 from E. coli lysate held on amylose resin as bait, mixed with E. coli lysates containing GST-S1A6 or GST-S1TPR; PBS pH 7.4; western blot with anti-MBP and anti-GST; only the target purified

Row | Substance | binding
1 | GST-S1TPR (Oryza glaberrima) | binds
2 | GST-S1A6 (Oryza glaberrima) | binds

These are yes or no findings as the source states them, for the method shown. Binding seen in cells or lysates may run through a third protein. A result given as binding can be weak or reduced; the word gives no strength. Sequences can lack the tags named with a protein.
